For this series, the system named is Spodoptera littoralis (Boisd.) 2nd and 4th instar larvae. In words: Insecticidal bioassay screening (castor leaf dip, larval mortality). Format: in vivo. To be noted: after 72 h of treatment, regression line slope. Here is the method:
Five concentrations (200, 100, 50, 25, 12.5 ppm) were designed for this synthetic compound and the reference fenoxycarb compound as the dynamic ingredients based on ppm via diluting the commercial formulation.
In this experiment, castor leaves are immersed in each of the previously prepared concentrations of the components for 10 seconds and then left to dry for 60 minutes. Larvae of the second and fourth instars of each checked strain are prepared with treated leaves in gauze-covered glass containers for 72 hrs. An untreated control is made in which leaves are dipped in triton x-100 and distilled water only. Then the preserved leaves were removed & fresh, untreated leaves were provided for 72 hours. Three replicates (10 larvae each) were checked for each concentration. Daily inspection was carried out for all treatments and mortality percentages were recorded 3 days (72 hours) after treatment. The average mortality percentage was corrected employing Abbott's formula. The corrected mortality rate for each of the previously synthesized compounds is statistically calculated according to Finney (1970). Through this rate, the corresponding concentration test lines (LDP lines) are assessed. Fifty and ninety percent mortality are determined, and the regression values for the checked products were previously evaluated.

With `O=C(O)c1cn(C2CC2)c2cc(N3CCN(CC(O)COc4ccc5ccccc5c4)CC3)c(F)cc2c1=O` (centres unmarked) [Compound 7], the “slope ± SE” value (2nd instar larvae of S. littoralis) came to 0.279 ± 0.084 and the “slope ± SE” value (4th instar larvae of S. littoralis) is listed as 0.234 ± 0.0830.
